PubChem BioAssay AID1259326 – Drosophila RNAi Screening Center, 2017
Here is one part, drawn at random, of 573 deposited reagents. 39 of them (6.8%) count as active. 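All actives have raised ATP, meaning more surviving cells; in these data active calls sit at averaged z-scores near 1.5 or above.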 Raw values are not corrected between plates. A number with no mark means an inactive call. Names joined by + are all predicted targets of the reagent. Not given: the amount of reagent.

- Assay: 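Knock-downs that shift cellular ATP after a high zinc chloride dose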
- Cells: Drosophila S2R+ cells
- Reagents: long dsRNA against Drosophila genes
- Duration: about 5 days (4 days of RNAi, then 1 day of zinc)
- Treatment: zinc chloride added to 15 mM final for one day
- Read-out: 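Cellular ATP measured by luciferase light as a viable-cell proxy, after 4 days of RNAi and 1 day in 15 mM zinc chloride; replicate z-scores averaged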
- Direction: averaged z-score: higher = more ATP than other wells, i.e. more surviving cells, after zinc; ATP luminescence: higher = more ATP, i.e. more surviving cells
- Call rule: 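Called active when the averaged z-score lies outside -1.5 to 1.5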

| gene | amplicon | averaged z-score | ATP luminescence, replicate 1 | ATP luminescence, replicate 2 |
| --- | --- | --- | --- | --- |
| RabGGTb | DRSC00804 | 0.448 | 87371 | 92964 |
| RabGGTb | DRSC29549 | -0.204 | 87977 | 71985 |
| RabGGTb | DRSC41159 | -0.306 | 64988 | 71093 |
| Atg16 | DRSC15052 | 0.959 | 1.25e5 | 89790 |
| Atg16 | DRSC15300 | -0.154 | 76873 | 67200 |
| Atg16 | DRSC41179 | -0.135 | 68971 | 72911 |
| zip | DRSC22489 | 0.133 | 76975 | 76547 |
| zip | DRSC28416 | 0.118 | 99157 | 73232 |
| zip | DRSC40456 | 0 | 88074 | 68521 |
| Pde11 | DRSC02028 | 0.17 | 1.00e5 | 83632 |
| Pde11 | DRSC26665 | -0.03 | 81367 | 75724 |
| Pde11 | DRSC37337 | 0.464 | 80648 | 80664 |
| Aldh | DRSC02717 | -0.196 | 73666 | 95022 |
| Aldh | DRSC41148 | -0.165 | 69430 | 77045 |
| betaggt-I | DRSC03494 | 0.117 | 90287 | 82328 |
| betaggt-I | DRSC41158 | 0.0817 | 68504 | 79806 |
| IKKepsilon | DRSC03550 | 0.265 | 98231 | 82191 |
| IKKepsilon | DRSC36795 | -0.176 | 76680 | 75141 |
| IKKepsilon | DRSC41226 | 0.0237 | 68555 | 78812 |
| CG42638 + Trpml | DRSC11032 | 0.29 | 1.07e5 | 80784 |
| CG42638 + Trpml | DRSC39630 | -0.128 | 79365 | 60358 |
| Galphaq | DRSC07432 | -0.11 | 89190 | 72894 |
| Galphaq | DRSC25341 | -0.266 | 75518 | 69292 |
| Galphaq | DRSC41220 | -0.0437 | 72603 | 74524 |
| Rpt3 | DRSC23412 | 0.184 | 97561 | 86651 |
| Rpt3 | DRSC32208 | -0.0536 | 90665 | 47120 |
| Rpt3 | DRSC32209 | 0.506 | 79824 | 90322 |
| Pdk1 | DRSC27069 | -0.117 | 91951 | 79383 |
| Pdk1 | DRSC30825 | 0.0423 | 89515 | 67132 |
| Pdk1 | DRSC30826 | -0.169 | 66737 | 74764 |
| CG4332 | DRSC19890 | 0.25 | 1.03e5 | 81899 |
| CG4332 | DRSC39702 | 0.269 | 78222 | 86695 |
| CG4332 | DRSC41186 | -0.253 | 59552 | 80818 |
| CG17698 | DRSC11907 | 0.0793 | 93210 | 76359 |
| CG17698 | DRSC36965 | -0.189 | 81179 | 68778 |
| CG17698 | DRSC41176 | -0.331 | 64525 | 72431 |
| cher | DRSC27625 | -0.0232 | 91420 | 83870 |
| cher | DRSC40768 | 1.97 (active) | 1.26e5 | 1.07e5 |
| cher | DRSC41209 | -0.132 | 71419 | 79000 |
| Nup44A | DRSC07248 | 0.0898 | 72019 | 80441 |
| Nup44A | DRSC28141 | 0.36 | 99397 | 87371 |
| Nup44A | DRSC35901 | 1.15 | 1.13e5 | 82551 |
| aPKC | DRSC07639 | 0.296 | 95348 | 84266 |
| aPKC | DRSC29936 | -0.127 | 72260 | 85964 |
| aPKC | DRSC37031 | -0.316 | 84217 | 73580 |
| Atg2 | DRSC08273 | -0.0648 | 79704 | 69361 |
| Atg2 | DRSC40921 | 0.0773 | 71882 | 94233 |
| Atg2 | DRSC41152 | 0.16 | 72054 | 83437 |
| 14-3-3epsilon | DRSC16370 | -0.375 | 75793 | 81522 |
| 14-3-3epsilon | DRSC30989 | -0.0884 | 66926 | 71934 |
| 14-3-3epsilon | DRSC40836 | -0.303 | 77199 | 70150 |
| CG5103 | DRSC10481 | 0.151 | 82088 | 94473 |
| CG5103 | DRSC41191 | -0.0953 | 63890 | 83906 |
| CG31251 | DRSC16247 | 0.0893 | 80647 | 97613 |
| CG31251 | DRSC41180 | 0.0436 | 72279 | 78692 |
| CCT2 | DRSC18415 | 0.473 | 79137 | 84644 |
| CCT2 | DRSC37133 | 0.225 | 87766 | 88606 |
| CCT2 | DRSC40662 | 0.111 | 82654 | 78623 |
| CG8475 | DRSC03091 | 0.437 | 86736 | 94834 |
| CG8475 | DRSC41203 | -0.16 | 65091 | 77988 |
| DIP2 | DRSC08582 | -0.224 | 87972 | 78537 |
| DIP2 | DRSC36466 | -0.379 | 77079 | 62758 |
| DIP2 | DRSC41216 | 0.159 | 75947 | 81046 |
| Ras85D | DRSC16814 | -0.245 | 78005 | 79155 |
| Ras85D | DRSC31009 | -0.193 | 64628 | 70682 |
| Ras85D | DRSC39132 | -0.0226 | 91128 | 60898 |
| CG6724 | DRSC02983 | 0.597 | 94144 | 1.07e5 |
| CG6724 | DRSC41196 | 0.283 | 76067 | 79841 |
